From patent US20110002995A1, “PHARMACEUTICAL COMPOSITION FOR THE TREATMENT AND PREVENTION OF CARDIAC DISEASE” (MAZENCE INC., priority 2007, published 2011)

System: TAC-induced heart hypertrophy
Test: Inhibitory effect on heart hypertrophy, TAC model (Experimental Example 1)
Assay type: in vivo, C57BL/6J male mice
Details: SHAM MB(+), 30 mg/kg
Method: 8-week-old C57BL/6J male mice (n=40, 20-23 g, SLC, Japan) were purchased and subjected to transverse aortic constriction (TAC).
The thorax was incised and the thymus was removed.
5 weeks after the operation of TAC for the heart failure model, a difference of a fractional shortening (F.S) value (%) with the control group was confirmed using echocardiogram, and the degree of heart failure induction and therapeutic effects were then determined.
Further, left ventricular end-diastolic and systolic diameters were measured according to the standard method of the American Society for Echocardiography. Fractional shortening (%) which is an indicator of the ventricular contractility is calculated according to the following equation.
F.S=(left ventricular end-diastolic diameter)−(left ventricular end-systolic diameter)/left ventricular end-diastolic diameter
Among compounds of Formula 1, inhibitory effects of 7,8-dihydro-2,2-dimethyl-2H-naphtho(2,3-b)dihydropyran-7,8-dione (hereinafter, referred to as “MB660”) on heart hypertrophy and heart failure were examined.
2 days after TAC treatment, animals were given test samples. Induction of heart hypertrophy was carried out over 2 weeks after TAC treatment. Induction of heart failure was carried out over 5 weeks after TAC treatment.

## CC1(C)CCc2cc3c(cc2O1)=CC(=O)C(=O)C=3 [MB660, 7,8-dihydro-2,2-dimethyl-2H-naphtho(2,3-b)dihydropyran-7,8-dione]
FIG. 1
  HW/BW ratio, normal control group (SHAM), treated vs non-treated: no significant difference
FIG. 2
  HW/TL ratio, normal control group (SHAM), treated vs non-treated: no significant difference
